These are yes or no findings as the source states them, for the method shown. Binding seen in cells or lysates may run through a third protein. Some binding calls cover weakened binding; strength is not graded here.
Target: mCherry-NIX (WT) (UniProt O60238)
Test: co-IP; RFP-trap magnetic agarose on lysates (0.5% triton X-100 buffer) of B/N DKO HeLa cells expressing mCherry-BNIP3 or mCherry-NIX; cells cultured with 1 mM DFP for 12 h, then 12 h more with 100 nM bafilomycin A1 and DFP; immunoblot

Chains of the proteins cited; added tags and fusions are not shown.
UniProt O60238: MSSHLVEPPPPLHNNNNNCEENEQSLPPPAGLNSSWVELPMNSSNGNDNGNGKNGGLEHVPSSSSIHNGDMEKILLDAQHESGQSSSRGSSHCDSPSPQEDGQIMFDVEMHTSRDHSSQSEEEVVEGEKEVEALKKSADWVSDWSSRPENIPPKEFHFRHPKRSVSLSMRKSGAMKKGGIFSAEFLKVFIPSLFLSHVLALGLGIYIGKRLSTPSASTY

binding: binds
B1: WIPI2 (protein, UniProt Q9Y4P8 1-454)
chain: MNLASQSGEAGAGQLLFANFNQDNTEVKGASRAAGLGRRAVVWSLAVGSKSGYKFFSLSSVDKLEQIYECTDTEDVCIVERLFSSSLVAIVSLKAPRKLKVCHFKKGTEICNYSYSNTILAVKLNRQRLIVCLEESLYIHNIRDMKVLHTIRETPPNPAGLCALSINNDNCYLAYPGSATIGEVQVFDTINLRAANMIPAHDSPLAALAFDASGTKLATASEKGTVIRVFSIPEGQKLFEFRRGVKRCVSICSLAFSMDGMFLSASSNTETVHIFKLETVKEKPPEEPTTWTGYFGKVLMASTSYLPSQVTEMFNQGRAFATVRLPFCGHKNICSLATIQKIPRLLVGAADGYLYMYNLDPQEGGECALMKQHRLDGSLETTNEILDSASHDCPLVTQTYGAAAGKGTYVPSSPTRLAYTDDLGAVGGACLEDEASALRLDEDSEHPPMILRTD

— article PMC12071194
